The text below walks through data of the supplement of paper PMC8732350.

Where a name gives a salt, the structure may show the parent alone. ± gives the standard deviation of the averaged measurements. Some of the results follow. Most values lie within the scatter of the assay; repeated measurements hardly agree.

For the experiment, the system named is A549. Put plainly: surface PD-L1 immunofluorescence intensity relative to IFN-gamma-only control (ratio); higher = more PD-L1 expression. The following applies: 10 µM; exposure time 24 h; IFN-gamma 100 ng/mL.
Regarding `COc1cccc(OC)c1OCCNCC1COc2ccccc2O1` (stereo unspecified) [WB 4101 hydrochloride], the “surface PD-L1 immunofluorescence intensity” value worked out at 0.996. On to `O=C1NCN(c2ccccc2)C12CCN(CCCC(c1ccc(F)cc1)c1ccc(F)cc1)CC2` [Fluspirilen], for which the “surface PD-L1 immunofluorescence intensity” value is 1.12.

As for `O=C1NCN(c2ccccc2)C12CCN(CCCC(c1ccc(F)cc1)c1ccc(F)cc1)CC2` [Fluspirilene], the “surface PD-L1 immunofluorescence intensity” value amounted to 0.94 ± 0.11. Next, `CC(C)(C)C(=O)OCOC(=O)[C@@H]1N2C(=O)[C@@H](NC(=O)[C@H](N)c3ccccc3)[C@H]2SC1(C)C` [Pivampicillin]: 0.979; `CC1(C)Oc2ccc(C#N)cc2[C@H](N2CCCC2=O)[C@H]1O` [Cromakalim]: 1.

For the compound `N[C@@H]1CCCCN(c2c(F)cc3c(=O)c(C(=O)O)cn(C4CC4)c3c2Cl)C1` [Besifloxacin HCl (Besivance)], the “surface PD-L1 immunofluorescence intensity” value stood at 0.988. The figure for `CC[C@H]1OC(=O)[C@H](C)[C@@H](O[C@H]2C[C@@](C)(OC)[C@@H](O)[C@H](C)O2)[C@H](C)[C@@H](O[C@@H]2O[C@H](C)C[C@H](N(C)C)[C@H]2O)[C@](C)(OC)C[C@@H](C)C(=O)[C@H](C)[C@@H](O)[C@]1(C)O` [Clarithromycin] is 1.09; for `CC[C@H]1OC(=O)[C@H](C)[C@@H](O[C@H]2C[C@@](C)(OC)[C@@H](O)[C@H](C)O2)[C@H](C)[C@@H](O[C@@H]2O[C@H](C)C[C@H](N(C)C)[C@H]2O)[C@](C)(OC)C[C@@H](C)C(=O)[C@H](C)[C@@H](O)[C@]1(C)O` [Clarithromycin (Biaxin, Klacid)] it is 0.963.

For the compound `CCOc1ccccc1OCC1CNCCO1` (stereo unspecified) [Viloxazine hydrochloride], the “surface PD-L1 immunofluorescence intensity” value amounted to 0.991. Next, `NC(=O)Cc1cccc(C(=O)c2ccccc2)c1N` [Nepafenac]: 0.99; `C[C@H]1COC2=C1C(=O)C(=O)c1c2ccc2c1CCCC2(C)C` [Cryptotanshinone]: 0.981; `CN(C)CC[C@H](CSc1ccccc1)Nc1ccc(S(=O)(=O)NC(=O)c2ccc(N3CCN(Cc4ccccc4-c4ccc(Cl)cc4)CC3)cc2)cc1[N+](=O)[O-]`: 1.24.

In the case of `CCCCC1=NC2(CCCC2)C(=O)N1Cc1ccc(-c2ccccc2-c2nnn[nH]2)cc1` [Irbesartan (Avapro)], the “surface PD-L1 immunofluorescence intensity” value worked out at 1.09. The figure for `CCCCOC(=O)c1ccc(N)cc1` [Butamben] is 0.999. The figure for `COc1cc(Cc2cnc(N)nc2N)cc(OC)c1OC` [Trimethoprim] is 0.919. On to `COc1cc2c(cc1OC)CN(CCc1ccc(NC(=O)c3cc(OC)c(OC)cc3NC(=O)c3cnc4ccccc4c3)cc1)CC2` [Tariquidar], for which the “surface PD-L1 immunofluorescence intensity” value worked out at 1.05. On to `CN(C(=O)c1ccc(F)cc1C(F)(F)F)C1CCN(c2nnc(-c3ccnn3C)c3ccccc23)CC1`, for which the “surface PD-L1 immunofluorescence intensity” value is 1.

Take `FC(F)(F)c1cc(COC2CCCNC2c2ccccc2)cc(C(F)(F)F)c1` [L-733,060 hydrochloride]: the “surface PD-L1 immunofluorescence intensity” value is 0.934. The figure for `CCN(CC)CCOC(=O)C(c1ccccc1)C1CCCCC1` (stereo unspecified) [Drofenine hydrochloride] is 1.02.

Regarding `COc1ccc([C@H]2CNC(=O)C2)cc1OC1CCCC1` [(S)-(+)-Rolipram], the “surface PD-L1 immunofluorescence intensity” value worked out at 0.96. Regarding `COc1ccc([C@H]2CNC(=O)C2)cc1OC1CCCC1` [S- (+)-Rolipram], the “surface PD-L1 immunofluorescence intensity” value was determined as 1.09. The figure for `C=CC(=O)c1ccc2ccccc2c1` is 0.87; for `NS(=O)(=O)c1cccc2c1c([N+](=O)[O-])cc1nc(O)c(O)nc12` [NBQX disodium salt] it is 1.08; for `NS(=O)(=O)c1cccc2c1c([N+](=O)[O-])cc1nc(O)c(O)nc12` it is 0.954. Turning to `CCCCC(CC)CN1CN(CC(CC)CCCC)CC(C)(N)C1` (stereo unspecified) [Hexetidine], the “surface PD-L1 immunofluorescence intensity” value is 1.03. For the compound `COc1cc2c(cc1OC)C(=O)C(CC1CCN(Cc3ccccc3)CC1)C2` (stereo unspecified) [Donepezil HCl (Aricept)], the “surface PD-L1 immunofluorescence intensity” value is 0.781. Regarding `O=C(CCCN1CCC(O)(c2ccc(Br)cc2)CC1)c1ccc(F)cc1` [Bromperidol], the “surface PD-L1 immunofluorescence intensity” value was found to be 1.09.

`CNCC[C@H](Oc1cccc2ccccc12)c1cccs1` [Duloxetine HCl (Cymbalta)]: the “surface PD-L1 immunofluorescence intensity” value amounted to 1.13. The figure for `CO[C@@]1(NC(=O)Cc2cccs2)C(=O)N2C(C(=O)O)=C(COC(N)=O)CS[C@@H]21` [Cefoxitin sodium salt] is 0.967. The figure for `C[C@]12CC[C@H]3C(=CCc4cc(O)ccc43)[C@@H]1CCC2=O` [Equilin] is 0.958; for `CNC(=O)[C@H]1O[C@@H](n2cnc3c(NCc4cccc(I)c4)ncnc32)[C@H](O)[C@@H]1O` it is 0.99; for `C=C[C@H]1CN2CC[C@H]1C[C@@H]2[C@@H](O)c1ccnc2ccc(OC)cc12` [Quinidine hydrochloride monohydrate] it is 1.01. Consider `NC(=O)N1c2ccccc2CC(O)c2ccccc21` (stereo unspecified) [Licarbazepine], for which the “surface PD-L1 immunofluorescence intensity” value was found to be 1.01. Next, `Cc1cccc(C)c1NC(=O)C1CCCCN1C` (stereo unspecified) [Mepivacaine hydrochloride]: 0.951. Next, `CCc1nc(-c2cccc(C)c2)c(-c2ccnc(NC(=O)c3ccccc3)c2)s1`: 0.97 ± 0.014; `CN1C(C(=O)Nc2ccccn2)=C(O)c2sccc2S1(=O)=O` [Tenoxicam]: 0.945. Turning to `Cc1ncc([N+](=O)[O-])n1CC(O)CCl` (stereo unspecified) [Ornidazole], the “surface PD-L1 immunofluorescence intensity” value stood at 0.971. The figure for `O=C(CCCCCCC(=O)NO)NO` [Suberoyl bis-hydroxamic acid] is 0.968. With `Cn1c(=O)c2[nH]cnc2n(C)c1=O` [Aminophylline], the “surface PD-L1 immunofluorescence intensity” value came out at 1.06.

With `CS(=O)(=O)c1ccc(C2=C(c3ccccc3)C(=O)OC2)cc1` [Rofecoxib], the “surface PD-L1 immunofluorescence intensity” value came to 0.996. Take `CN(C)CCC=C1c2ccccc2CCc2ccccc21` [Amitryptiline hydrochloride]: the “surface PD-L1 immunofluorescence intensity” value came out at 0.851.

Regarding `Cc1ccnc2c1NC(=O)c1cccnc1N2C1CC1` [Nevirapine (Viramune)], the “surface PD-L1 immunofluorescence intensity” value is 1.09. Next, `Cc1[nH]c(=O)c(C#N)cc1-c1ccncc1` [Milrinone]: 1.06; `O=c1cc(N2CCNCC2)oc2c(-c3ccccc3)cccc12`: 1.09. The figure for `COc1cc2ncc(-c3ccccc3)nc2cc1OC` [Tyrphostin AG 1296 (AG 1296)] is 0.955. The figure for `COc1ccc(C(=O)Nc2sc3c(c2C(N)=O)CCCC3)cc1OC` is 0.97744 ± 0.00031; for `CC(N)(Cc1ccc(O)c(O)c1)C(=O)O` [L-(-)- _-Methyldopa] it is 1.06; for `O=NO` [Sodium Nitrite] it is 1.09. For `CN(C)CC/C=C1\c2ccccc2CSc2ccccc21` [Dosulepin hydrochloride], the “surface PD-L1 immunofluorescence intensity” value was determined as 0.977. For `COc1cc(Nc2ncc(F)c(Nc3ccc4c(n3)NC(=O)C(C)(C)O4)n2)cc(OC)c1OC`, the “surface PD-L1 immunofluorescence intensity” value was 0.784. Next, `CC(C)(Oc1ccc(Cl)cc1)C(=O)O` [Clofibric acid]: 0.978 ± 0.029.

As to `CC(=O)[C@@]1(O)CC[C@H]2[C@@H]3CCC4=CC(=O)CCC4=C3[C@@H](c3ccc(N(C)C)cc3)C[C@@]21C` [Ulipristal], the “surface PD-L1 immunofluorescence intensity” value came out at 0.997. On to `CC(C)(S)[C@@H](N)C(=O)O` [Penicillamine], for which the “surface PD-L1 immunofluorescence intensity” value was 0.955. Turning to `Cc1cc(C(=O)NNCc2ccccc2)no1` [Isocarboxazid], the “surface PD-L1 immunofluorescence intensity” value stood at 0.93.

Take `CO[C@H]1C[C@H](O[C@H]2[C@H](C)[C@@H](O[C@@H]3O[C@H](C)C[C@H](N(C)C)[C@H]3OC(C)=O)[C@@H](C)C[C@@]3(CO3)C(=O)[C@H](C)[C@@H](OC(C)=O)[C@@H](C)[C@@H](C)OC(=O)[C@@H]2C)O[C@@H](C)[C@@H]1OC(C)=O` [Troleandomycin]: the “surface PD-L1 immunofluorescence intensity” value is 0.833. Take `COc1ccc(-c2ccc(=N)n(CCCC(=O)O)n2)cc1` [Gabazine bromide]: the “surface PD-L1 immunofluorescence intensity” value was found to be 1.02. On to `COc1ccc(-c2ccc(=N)n(CCCC(=O)O)n2)cc1`, for which the “surface PD-L1 immunofluorescence intensity” value came out at 1. `CCCCCCCCCCC[C@@H](C[C@@H]1OC(=O)[C@H]1CCCCCC)OC(=O)[C@H](CC(C)C)NC=O` [Orlistat]: the “surface PD-L1 immunofluorescence intensity” value was determined as 1.01.

`CCCCCCCCCCC[C@@H](C[C@@H]1OC(=O)[C@H]1CCCCCC)OC(=O)[C@H](CC(C)C)NC=O` [Orlistat (Alli, Xenical)]: the “surface PD-L1 immunofluorescence intensity” value is 0.929.

Turning to `CC1(C)CCC(CN2CCN(c3ccc(C(=O)NS(=O)(=O)c4ccc(NCC5CCOCC5)c([N+](=O)[O-])c4)c(Oc4cnc5[nH]ccc5c4)c3)CC2)=C(c2ccc(Cl)cc2)C1`, the “surface PD-L1 immunofluorescence intensity” value came to 1.12. For the compound `Cn1c(=O)c2c(ncn2CC(=O)O)n(C)c1=O` [Acefylline], the “surface PD-L1 immunofluorescence intensity” value is 0.978. Regarding `Nc1nc(N)c2nc(-c3cccc(O)c3)cnc2n1`, the “surface PD-L1 immunofluorescence intensity” value amounted to 1.0217 ± 0.00086.

As for `CCN1C(=O)NC(c2ccccc2)C1=O` (stereo unspecified) [Ethotoin], the “surface PD-L1 immunofluorescence intensity” value was determined as 1. Next, `CN1CCCC(CC2c3ccccc3Sc3ccccc32)C1` (stereo unspecified) [Metixene hydrochloride]: 0.939; `COc1ccccc1N1CCN(CC(O)COc2cccc3ccccc23)CC1` (stereo unspecified) [Naftopidil hydrochloride]: 0.992. The figure for `COc1ccccc1N1CCN(CC(O)COc2cccc3ccccc23)CC1` (stereo unspecified) [Naftopidil dihydrochloride] is 0.901; for `CN1CCC(=C2c3ccccc3CC(=O)c3sccc32)CC1` [Ketotifen fumarate] it is 0.937 ± 0.037.

Take `O=C(O)CC[C@H]1CC[C@@](c2cc(F)ccc2F)(S(=O)(=O)c2ccc(Cl)cc2)CC1`: the “surface PD-L1 immunofluorescence intensity” value came to 0.864. As to `COc1ccc2c(c1)N(C[C@H](C)CN(C)C)c1ccccc1S2` [Methotrimeprazine maleat salt], the “surface PD-L1 immunofluorescence intensity” value stood at 0.877. Take `CC[C@H](CC[C@@H](C)[C@H]1CC[C@H]2[C@@H]3CC=C4C[C@@H](O)CC[C@]4(C)[C@H]3CC[C@]12C)C(C)C` [?-Sitosterol]: the “surface PD-L1 immunofluorescence intensity” value amounted to 1.03. The figure for `CCCN(CCC)C(=O)C(CCC(=O)O)NC(=O)c1ccccc1` (stereo unspecified) [Proglumide] is 0.862; for `COc1cc(OC)c(C(=O)CCCN2CCCC2)c(OC)c1` [Buflomedil hydrochloride] it is 0.957; for `N#CC(c1ccc(Cl)cc1)c1c(Cl)cc(-n2ncc(=O)[nH]c2=O)cc1Cl` (stereo unspecified) [Diclazuril] it is 0.932.

With `O=c1ccc2ccc(O)c(O)c2o1` [Daphnetin], the “surface PD-L1 immunofluorescence intensity” value came to 0.93. Next, `Cc1ccc(NC(=O)C(C)C)cc1C1CCN(Cc2ccc(Oc3ccc(F)c(F)c3)cc2)CC1`: 1.08; `Nc1ccc(-c2nc3ccc(-c4nc5ccc(N)cc5[nH]4)cc3[nH]2)cc1`: 0.999.
